This test addresses T1, Flag-tagged RecQL4 K508M (helicase domain mutant) (human) (UniProt O94761).
T1 sequence: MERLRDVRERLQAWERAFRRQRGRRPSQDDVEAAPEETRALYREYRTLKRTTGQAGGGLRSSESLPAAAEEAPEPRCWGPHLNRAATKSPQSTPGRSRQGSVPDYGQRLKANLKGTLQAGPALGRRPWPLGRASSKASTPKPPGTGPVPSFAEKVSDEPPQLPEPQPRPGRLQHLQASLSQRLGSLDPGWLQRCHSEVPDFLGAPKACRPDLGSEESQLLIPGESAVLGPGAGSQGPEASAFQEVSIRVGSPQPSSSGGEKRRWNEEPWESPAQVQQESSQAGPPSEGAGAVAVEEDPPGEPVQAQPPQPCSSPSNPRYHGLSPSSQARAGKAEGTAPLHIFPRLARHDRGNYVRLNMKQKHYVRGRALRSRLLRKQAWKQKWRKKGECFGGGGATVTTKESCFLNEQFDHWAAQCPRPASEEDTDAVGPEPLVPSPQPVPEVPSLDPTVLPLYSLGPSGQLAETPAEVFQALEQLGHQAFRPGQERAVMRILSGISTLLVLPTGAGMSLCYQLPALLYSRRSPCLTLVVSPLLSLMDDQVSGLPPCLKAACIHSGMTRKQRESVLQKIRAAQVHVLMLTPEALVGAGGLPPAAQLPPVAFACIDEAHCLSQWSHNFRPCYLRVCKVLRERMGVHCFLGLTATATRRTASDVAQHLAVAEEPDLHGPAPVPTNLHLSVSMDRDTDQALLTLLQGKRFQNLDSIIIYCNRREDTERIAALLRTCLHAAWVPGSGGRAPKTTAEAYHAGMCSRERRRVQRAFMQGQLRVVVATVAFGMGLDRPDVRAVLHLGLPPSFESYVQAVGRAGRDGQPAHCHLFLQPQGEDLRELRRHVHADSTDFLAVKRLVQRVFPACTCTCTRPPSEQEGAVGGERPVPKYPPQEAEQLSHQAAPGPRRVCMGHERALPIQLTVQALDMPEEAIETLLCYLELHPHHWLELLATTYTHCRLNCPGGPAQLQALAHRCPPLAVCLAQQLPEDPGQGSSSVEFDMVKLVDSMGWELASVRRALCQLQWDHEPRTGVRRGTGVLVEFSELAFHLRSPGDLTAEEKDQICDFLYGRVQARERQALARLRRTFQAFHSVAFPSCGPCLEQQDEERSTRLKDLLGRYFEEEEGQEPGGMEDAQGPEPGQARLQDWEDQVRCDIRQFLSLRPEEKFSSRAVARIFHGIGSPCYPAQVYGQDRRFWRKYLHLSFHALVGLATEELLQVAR
Nature of the test: co-IP; anti-Flag M2 affinity gel; whole-cell lysates of transfected 293T cells, 1.0 mg protein in lysis buffer (50 mM Tris-HCl pH 7.5, 150 mM NaCl, 1% NP-40, 5 mM EDTA, 5 mM EGTA); 4 °C, 3-4 h; Western blot. Background: A western blot detects proteins with antibodies after separation by electrophoresis.

Chains of the proteins cited; added tags and fusions are not shown.
UniProt Q96GD4: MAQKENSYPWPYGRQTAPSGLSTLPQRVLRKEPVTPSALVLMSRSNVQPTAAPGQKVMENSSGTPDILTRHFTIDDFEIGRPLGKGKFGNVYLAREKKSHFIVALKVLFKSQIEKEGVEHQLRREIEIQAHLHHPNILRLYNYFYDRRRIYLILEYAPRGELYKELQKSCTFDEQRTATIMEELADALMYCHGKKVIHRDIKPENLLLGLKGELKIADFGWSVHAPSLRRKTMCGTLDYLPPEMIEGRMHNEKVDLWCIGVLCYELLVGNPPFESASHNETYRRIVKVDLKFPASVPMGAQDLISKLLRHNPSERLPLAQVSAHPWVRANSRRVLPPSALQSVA

No constants are given. Whether binding was seen depends on the method and setting. In cells and extracts the contact can be indirect. Some entries that bind do so weakly or less than the wild type. Tags and fused reporters may be left off the sequences shown.

Turning to “endogenous (native) Aurora B kinase (AURKB) of 293T cells (from UniProt Q96GD4 1-344)”, the binding result is “binds”.

The record behind these values is article PMC6134139.
